PubChem BioAssay AID493246 | Drosophila RNAi Screening Center, 2011
Screen: 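Genome-wide search for dsRNAs that reduce cell number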 (primary screen). System: Drosophila Kc and S2R+ cells. Reagent: long dsRNA against Drosophila genes. Read-out: 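Cell number per well after knock-down, printed as raw plate values; calls were based on per-plate z-scores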. Direction: Kc cell number and S2R+ cell number: higher = more cells remaining. Active means: 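Active when the per-plate z-score of cell number is 3 or more in the direction of fewer cells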.
The screen tested about 21,000 reagents; shown is an unselected part of those with a known target gene and a result. Over the whole deposit, 429 (2%) are marked active. 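Values are raw and not normalised between plates; calls rest on per-plate z-scores that were not deposited.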 The record does not give: the amount of reagent, the time to read-out.

| target | dsRNA | Kc cell number, rep 1 | Kc cell number, rep 2 | S2R+ cell number, rep 1 | S2R+ cell number, rep 2 | Call |
| --- | --- | --- | --- | --- | --- | --- |
| Hakai | DRSC02031 | 1.52e6 | 1.53e6 | 1.35e6 | 1.35e6 | inactive |
| Ir62a | DRSC08250 | 1.44e6 | 1.26e6 | 9.60e5 | 1.24e6 | inactive |
| MME1 | DRSC02714 | 1.36e6 | 1.53e6 | 2.89e5 | 2.29e5 | inactive |
| CG13117 | DRSC02215 | 1.79e6 | 1.80e6 | 1.18e6 | 1.33e6 | inactive |
| Cpsf160 | DRSC05968 | 1.37e6 | 1.44e6 | 1.17e6 | 1.28e6 | inactive |
| Charon | DRSC00679 | 1.31e6 | 1.28e6 | 8.12e5 | 8.66e5 | inactive |
| Nelf-E | DRSC10567 | 1.35e6 | 1.47e6 | 9.87e5 | 1.11e6 | inactive |
| nur | DRSC01342 | 1.49e6 | 1.62e6 | 1.04e6 | 1.23e6 | inactive |
| MKP-4 | DRSC19567 | 1.74e6 | 1.68e6 | 1.06e6 | 1.20e6 | inactive |
| NimC3 | DRSC03556 | 1.54e6 | 1.60e6 | 1.24e6 | 1.40e6 | inactive |
| miple2 | DRSC08723 | 1.25e6 | 1.26e6 | 1.08e6 | 1.24e6 | inactive |
| snRNA:U1:95Cc | DRSC13640 | 1.44e6 | 1.45e6 | 6.20e5 | 6.70e5 | active |
| CG10301 | DRSC14226 | 1.57e6 | 1.55e6 | 9.98e5 | 1.09e6 | inactive |
| Buffy | DRSC05957 | 1.62e6 | 1.70e6 | 1.39e6 | 1.41e6 | inactive |
| CG32036 | DRSC10362 | 1.42e6 | 1.46e6 | 1.26e6 | 1.04e6 | inactive |
| tobi | DRSC14435 | 1.80e6 | 1.87e6 | 1.06e6 | 1.08e6 | inactive |
| CG17598 | DRSC20636 | 1.53e6 | 1.60e6 | 1.10e6 | 1.22e6 | inactive |
| CG13949 | DRSC00367 | 1.48e6 | 1.50e6 | 1.01e6 | 1.17e6 | inactive |
| CG15207 (retired record) | DRSC19653 | 1.44e6 | 1.53e6 | 1.07e6 | 1.14e6 | inactive |
| Taf4 | DRSC11297 | 1.63e6 | 1.71e6 | 1.03e6 | 1.11e6 | inactive |
| CG14839 | DRSC14963 | 1.52e6 | 1.54e6 | 1.02e6 | 1.17e6 | inactive |
| CG12948 | DRSC14576 | 1.48e6 | 1.47e6 | 1.24e6 | 1.33e6 | inactive |
| CG17266 | DRSC04979 | 1.88e6 | 1.93e6 | 1.44e6 | 1.62e6 | inactive |
| Dscam3 | DRSC14525 | 1.25e6 | 1.27e6 | 1.22e6 | 1.40e6 | inactive |
| Dscam3 | DRSC16376 | 1.24e6 | 1.33e6 | 1.24e6 | 1.41e6 | inactive |
